The nature of the assay: qHTS Assay for Lipid Storage Modulators in Drosophila S3 Cells.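 As to cell number change: cells counted by Cell Tracker Red CMTPX staining in the red channel.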 Conditions: BODIPY lipid droplet fluorescence, 18-24 h; for cell number change: measured here: cell count max response, cells fed with added oleic acid. In outline:
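Laser-scanning cytometry quantifies lipid droplet accumulation (500–530 nm total intensity; droplet/cell object ratio) in oleic acid-fed (400 uM added) Drosophila S3 cells treated with a concentration series. 20 uM Triacsin C defined 100% inhibition.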

Setting [1] is: measured here: cell number channel AC50, cells fed with added oleic acid.
Setting [2] is: measured here: lipid fluorescence (Fed channel) AC50, cells fed with added oleic acid.

The list shows a part of the results. Shown are side measurements of this screen, not its main read-out; they come without a call. Compounds called inactive in the main read-out are mostly missing here. Words in brackets tell the shape of the fitted curve; partial curves, single points and poor fits give uncertain potencies.

Consider `Cc1nn(-c2ccccc2)c(C)c1NC(=O)COC(=O)C1CC(=O)N(CCc2ccccc2)C1` (stereo not given), for which the half-maximal activity concentration (AC50) is, setting by setting: under setting [1], 6.51 µM [rising, partial curve, poor fit]; under setting [2], 0.461 µM [falling, single point].
`Cc1ccc(-n2nc3c(=O)n(CC(=O)NCc4ccccc4)nc(C)c3c2C)cc1`: the cell number change came to 43.2%. Further, under setting [1], the AC50 is 0.82 µM [rising, full curve, poor fit].
For `COc1ccc(-c2c(-c3ccc(OCC(=O)NN)cc3O)n[nH]c2C(F)(F)F)cc1`, the cell number change is -17.1%. Under setting [2], the AC50 was 32.6 µM [falling, partial curve, poor fit].
Regarding `CCOC(=O)/C(=N\Nc1ccc(C(C)=O)cc1)c1csc(Nc2ccccc2)n1`, under setting [2], the concentration at half-maximal activity (AC50) was 29.1 µM [falling, single point].
Consider `Cc1ccc(-n2nnnc2SCC(=O)N2c3ccccc3NC(=O)C2(C)C)cc1`, for which the cell number change was -30.7%. The AC50 under setting [1] is 18.4 µM [falling, single point].
Regarding `Cc1cccc(NC(=S)N2CCN(c3ccccn3)CC2)c1`, the AC50 under setting [2] is 0.116 µM [rising, full curve, poor fit].
For the compound `CSc1ncc(C(C)=O)c(C)n1`, the cell number change is -28.4%. Besides, the AC50 under setting [2] is 18.4 µM [falling, partial curve].
On to `CC1=CC(C)(C)[N+](C)=CN1c1ccccc1`, for which the cell number change was -30.1%. Moreover, under setting [1], the concentration at half-maximal activity (AC50) was 1.03 µM [falling, full curve, poor fit]. The AC50 under setting [2] is 0.92 µM [falling, full curve].
As to `COc1cc(C(=O)NCCC2=CCCCC2)cc(OC)c1OC`, the cell number change is 46.7%. Further, the AC50 under setting [1] is 29.1 µM [rising, single point].
Consider `O=S(=O)(Nc1ccc(Oc2ncccn2)c(Cl)c1)c1ccc(Cl)cc1`, for which the cell number change came to 11.4%.
Turning to `Cc1cccc(CCN2C(N(C)C)=NC[C@@H]2C)c1`, the cell number change was determined as 12.2%. The AC50 under setting [2] was 0.651 µM [falling, single point].
Take `CCn1c(SCC(=O)c2c(N)n(C3CC3)c(=O)[nH]c2=O)nnc1-c1ccccc1OC`: the cell number change is -16.3%. Further, the AC50 under setting [1] was 0.00461 µM [rising, full curve, poor fit]. The half-maximal activity concentration (AC50) under setting [2] is 0.731 µM [rising, partial curve, poor fit].
Turning to `COc1ccccc1NC(=O)CCSc1nnnn1C`, the cell number change is 9.82%. Moreover, under setting [1], the AC50 is 0.13 µM [falling, partial curve, poor fit].
As to `CC1=CCC2C(=O)N(Cc3ccccc3)C(=O)C2C1` (stereo not given), the AC50 under setting [1] is 0.164 µM [rising, full curve].
On to `C=CCn1c(SC(C)C(=O)c2c(N)n(C)c(=O)n(C)c2=O)nnc1-c1ccoc1C` (stereo not given), for which the cell number change is -41.6%. Moreover, under setting [1], the AC50 is 29.1 µM [falling, single point]. The concentration at half-maximal activity (AC50) under setting [2] was 18.4 µM [falling, single point].
`Cc1cc(C)c2cc(C#N)c(SCC(=O)Nc3cc(C)on3)nc2c1`: the cell number change amounted to 1.28%. Further, the AC50 under setting [1] is 6.51 µM [rising, single point]. Further, the half-maximal activity concentration (AC50) under setting [2] was 5.17 µM [falling, partial curve].
For `COc1ccc(OC)c(NC(=O)CN2C(=O)c3ccccc3S2(=O)=O)c1`, the cell number change was 43.7%. The half-maximal activity concentration (AC50) under setting [1] is 3.66 µM [rising, partial curve, poor fit].
For the compound `CCOc1ccc(N(CC(=O)NCc2cccc(OC)c2)S(=O)(=O)c2c(C)noc2C)cc1`, the half-maximal activity concentration (AC50) under setting [2] is 0.58 µM [falling, single point].
As to `Cc1nnc(SCC(=O)Nc2nc(C(C)(C)C)cs2)s1`, the cell number change is -45.9%. For the same compound, the concentration at half-maximal activity (AC50) under setting [1] was 0.82 µM [falling, full curve, poor fit]. In addition, under setting [2], the AC50 is 1.16 µM [falling, full curve].
Regarding `C/C(N)=C(/C#N)C(=O)COC(=O)Cc1coc2cc(C)ccc12`, the cell number change is -8.14%. Besides, under setting [1], the concentration at half-maximal activity (AC50) is 0.731 µM [rising, single point].
Consider `CCCC(=O)Nc1cccc(C(=O)Nc2nccs2)c1`, for which the cell number change was found to be 30.3%. The concentration at half-maximal activity (AC50) under setting [1] was 0.00411 µM [rising, full curve, poor fit].
For the compound `Cc1c(C(c2cccc(Br)c2)c2c(C)n(C)n(-c3ccccc3)c2=O)c(=O)n(-c2ccccc2)n1C`, the cell number change is -33.2%. Besides, under setting [1], the AC50 was 4.61 µM [falling, full curve, poor fit].
As to `CCN1C(=O)[C@H]2[C@@H](c3ccc(C)cc3)N3C(=O)N(c4cccc(Cl)c4)C(=O)[C@@]3(Cc3ccccc3)[C@H]2C1=O`, the cell number change was 15.2%. The AC50 under setting [2] is 20.6 µM [rising, single point].
`COc1ccc(CNc2nc3c(c(=O)[nH]c(=O)n3C)n2Cc2ccccc2)cc1`: the cell number change was determined as 43.2%. Moreover, the AC50 under setting [1] was 0.00411 µM [rising, full curve, poor fit]. For the same compound, the AC50 under setting [2] was 6.51 µM [falling, single point].
For `C/C(=N/NC(=O)c1ccncc1)c1cc2ccc(O)cc2oc1=O`, the cell number change was -0.264%. Besides, under setting [2], the AC50 was 29.1 µM [falling, single point].
With `CCOC(=O)N1CCC(=NNC(N)=O)CC1`, the cell number change is -42.3%. In addition, the AC50 under setting [1] is 3.26 µM [falling, full curve]. The AC50 under setting [2] was 3.26 µM [falling, full curve].
For `Cc1cc(=O)n2nc(N3CCCC(C(=O)NC4CCCCC4C)C3)sc2n1` (stereo not given), the cell number change is -3.98%.
For the compound `O=C(Nc1ccc(S(=O)(=O)NCc2ccco2)cc1)C1CCCCC1`, the cell number change is -15.2%. Also, under setting [2], the AC50 is 16.4 µM [falling, single point].
Consider `C/C(=N\Nc1nc2ccccc2s1)c1cccs1`, for which the cell number change came out at 11.9%.
Turning to `Cc1cc([N+](=O)[O-])cc2ncccc12`, the cell number change stood at 39.7%. Moreover, the concentration at half-maximal activity (AC50) under setting [1] is 13 µM [rising, partial curve]. In addition, the concentration at half-maximal activity (AC50) under setting [2] is 0.411 µM [rising, partial curve, poor fit].
For the compound `O=C(OCCCN=C1NS(=O)(=O)c2ccccc21)c1ccccc1`, the cell number change was -18.2%. Also, under setting [2], the half-maximal activity concentration (AC50) was 29.1 µM [falling, single point].
As to `COc1ccc(S(=O)(=O)Nc2ccc3ccccc3c2)cc1C`, the cell number change is -34.3%. In addition, the half-maximal activity concentration (AC50) under setting [1] was 18.4 µM [falling, single point]. In addition, under setting [2], the half-maximal activity concentration (AC50) is 6.51 µM [rising, partial curve, poor fit].
Turning to `Cc1ccc(C(C)C)c(OCc2nc(-c3nonc3N)no2)c1`, the cell number change is -33.6%. Besides, under setting [1], the half-maximal activity concentration (AC50) was 32.6 µM [falling, single point]. In addition, the half-maximal activity concentration (AC50) under setting [2] was 29.1 µM [falling, single point].
Regarding `CCCN(CC1CCCO1)C(=O)c1cc(COc2ccc(F)cc2F)on1` (stereo not given), under setting [1], the concentration at half-maximal activity (AC50) was 1.64 µM [falling, full curve, poor fit].
In the case of `COCCNC(=O)Nc1ccc2c(c1)N(C)C(=O)CS2`, the cell number change amounted to 3.43%.
On to `CCN(CC)c1nc(C#N)nc(N(CC)CC)n1`, for which the cell number change was found to be 1.23%. For the same compound, the AC50 under setting [2] was 0.00517 µM [falling, full curve, poor fit].
As to `COc1ccc(N=C2S/C(=C\c3ccc(C)o3)C(=O)N2CC(C)C)cc1`, the cell number change was 0.0921%. The AC50 under setting [1] is 0.146 µM [rising, full curve, poor fit].
Regarding `Cn1c(NCCCO)nc2c1c(=O)n(Cc1ccccc1F)c(=O)n2C`, under setting [2], the concentration at half-maximal activity (AC50) was 6.51 µM [falling, single point].
In the case of `O=c1c2cnn(-c3ccccc3Cl)c2ncn1Cc1cccnc1`, the cell number change was 57.8%. Also, the AC50 under setting [1] is 11.6 µM [rising, partial curve]. Besides, the AC50 under setting [2] was 0.231 µM [falling, full curve, poor fit].
For `COc1ccc(C(=O)CC(SCC(NC(C)=O)C(=O)O)c2ccc(Cl)cc2)cc1OC` (stereo not given), the cell number change is -28.7%. Further, the AC50 under setting [2] was 18.4 µM [falling, single point].
On to `COc1ccc(NC(=O)CN(C)C(=O)CCc2nc3cc(S(=O)(=O)N4CCOCC4)ccc3n2C)cc1`, for which the AC50 by setting is: under setting [1], 2.59 µM [rising, partial curve]; under setting [2], 1.84 µM [rising, partial curve].
For the compound `CCc1ccc(NC(=O)C2CC=CCC2C(=O)O)cc1` (stereo not given), the cell number change is -2.78%. The AC50 under setting [2] was 3.66 µM [falling, single point].
For `O=C(Cn1cc2c(n1)CCCC2)NCCCN1CCN(c2ccccc2F)CC1`, the concentration at half-maximal activity (AC50) under setting [2] was 0.231 µM [rising, partial curve].
With `CCN(C(=O)COn1nnc2ccc(S(=O)(=O)N(C)C)cc21)C1CCS(=O)(=O)C1` (stereo not given), the cell number change is -4.45%. Further, the AC50 under setting [1] is 0.058 µM [falling, full curve, poor fit].
With `N#C/C(=C(/O)CSc1nnc(Cc2cccs2)n1C1CCCCC1)c1nc2ccccc2[nH]1`, the cell number change was -6.14%. For the same compound, the concentration at half-maximal activity (AC50) under setting [2] was 2.06 µM [rising, partial curve].
On to `Cc1ccc(NC(=O)CSCC(=O)Nc2cccc(S(=O)(=O)N3CCCCCC3)c2)cc1`, for which the cell number change was -21%. Moreover, the concentration at half-maximal activity (AC50) under setting [2] is 29.1 µM [falling, single point].
As for `CCn1c(SCC(O)c2ccccc2)nnc1-c1ccccc1` (stereo not given), the cell number change is 4.9%. Moreover, the AC50 under setting [1] was 0.731 µM [falling, single point]. Besides, the AC50 under setting [2] was 10.3 µM [rising, partial curve, poor fit].
Consider `COc1ccc(S(=O)(=O)N(CC(=O)NC2CC2)c2ccc(C)cc2)cc1OC`, for which the cell number change came out at 9.77%. The concentration at half-maximal activity (AC50) under setting [2] is 29.1 µM [rising, single point].
Consider `C/C(=N/NC(=O)CSc1nc2ccccc2n1C)c1ccncc1`, for which the cell number change worked out at 34.2%. Besides, the concentration at half-maximal activity (AC50) under setting [1] was 2.59 µM [rising, full curve].
Regarding `CCOc1ccc(CNC(=O)CCS(=O)(=O)c2ccc3c(c2)oc(=O)n3C)cc1`, the cell number change stood at 7.37%. Besides, the concentration at half-maximal activity (AC50) under setting [1] is 3.66 µM [rising, single point]. For the same compound, under setting [2], the AC50 was 29.1 µM [rising, single point].
`CC(CN1CCN(C)CC1)OC(=O)c1ccc(Cl)cc1` (stereo not given): the cell number change is -40.1%. The AC50 under setting [1] is 0.146 µM [falling, full curve, poor fit]. Also, under setting [2], the half-maximal activity concentration (AC50) was 0.291 µM [falling, full curve].
Regarding `C=CCSc1nc2ccccc2c(=O)[nH]1`, the cell number change is -17.8%. The half-maximal activity concentration (AC50) under setting [2] was 0.259 µM [falling, full curve].
Turning to `O=C(Nc1ccc(F)cc1)c1cc(-c2ccncc2)nc2c(Cl)cccc12`, the cell number change was determined as 54.9%. Further, under setting [1], the AC50 is 0.0731 µM [rising, full curve]. Also, under setting [2], the AC50 is 29.1 µM [falling, single point].
With `CNC(=S)NNC(=O)Cc1ccc(OC)c(OC)c1`, the cell number change was -34.8%. For the same compound, under setting [1], the AC50 was 0.0259 µM [falling, full curve, poor fit]. Also, under setting [2], the AC50 was 32.6 µM [falling, single point].
Turning to `O=C(CNc1ccccc1)N/N=C/c1ccc([N+](=O)[O-])cc1`, the cell number change was 13.3%. The AC50 under setting [2] was 1.84 µM [rising, partial curve, poor fit].

A word on the AC50: it is the midpoint of the concentration-response curve, whichever way the signal moves.

The values above are taken from PubChem BioAssay AID2685 (National Center for Advancing Translational Sciences (NCATS), 2010).
